This is one part of the list. Single values are uncertain, as repeats are few or missing.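 Cells were imaged in 1,536-well plates, and nuclei stained with an antibody against cleaved PARP were counted against all DNA-stained nuclei to give the apoptosis fraction. Screening doses were chosen to leave most cells alive, and resting and induced cleaved-PARP levels differ strongly between cell lines.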

The source of these data is the supplement of paper PMC4604168 (melanoma cell lines).

This assay deals with SkMel28. Put plainly: cleaved PARP positive nuclei fraction relative to DMSO control; melanoma cells; higher = more apoptosis. The conditions noted are these: library dose: low library concentration; 72 h.
As to `Cn1sc(=O)n(Cc2ccccc2)c1=O` + CC(C)C[C@H](NC(=O)[C@H](Cc1ccccc1)NC(=O)c1cnccn1)B(O)O [Bortezomib] (first compound 0.4 µM, partner dose 0.001 µM), the “cleaved PARP positive nuclei fraction” value was determined as 127%.
For `C[C@]1(O)C[C@@H](c2nc(-c3ccc4ccc(-c5ccccc5)nc4c3)c3c(N)nccn32)C1` + C=CCn1c(=O)c2cnc(Nc3ccc(N4CCN(C)CC4)cc3)nc2n1-c1cccc(C(C)(C)O)n1 [MK1775] (first compound 0.4 µM, partner dose 0.02 µM) the value was 76.9%; for `CS(=O)(=O)c1ccc(C(=O)Nc2ccc(Cl)c(-c3ccccn3)c2)c(Cl)c1` [vismodegib] + C[C@@H](Oc1cc(-c2cnn(C3CCNCC3)c2)cnc1N)c1c(Cl)ccc(F)c1Cl [Crizotinib] (first compound 1 µM, partner dose 0.2 µM), 93.6%.
For `CN(c1ncccc1CNc1nc(Nc2ccc3c(c2)CC(=O)N3)ncc1C(F)(F)F)S(C)(=O)=O` + Oc1cc(-c2nc(-c3ccccc3)[nH]c2-c2ccncc2)ccc1Cl [L779450] (first compound 0.08 µM, partner dose 0.2 µM) the value was 201%; for `NC(=O)c1ccc(N(C(N)=O)c2c(F)cccc2F)nc1-c1ccc(F)cc1F` + COc1ccc(Cl)c(Nc2nc3ccccc3nc2NS(=O)(=O)c2cccc(NC(=O)C(C)(C)N)c2)c1 [XL147] (first compound 0.4 µM, partner dose 0.8 µM), 82.6%.
For `CN(c1ncccc1CNc1nc(Nc2ccc3c(c2)CC(=O)N3)ncc1C(F)(F)F)S(C)(=O)=O` + Cc1cc(Nc2cc(N3CCN(C)CC3)nc(/C=C/c3ccccc3)n2)n[nH]1 [ENMD2076] (first compound 0.08 µM, partner dose 0.04 µM) the value was 52.7%.
As to `CCCCCCCCc1ccc(CCC(N)(CO)CO)cc1` [fingolimod] + c1cc(-c2cnn3cc(-c4ccc(OCCN5CCCCC5)cc4)cnc23)ccn1 [Dorsomorphin] (first compound 2 µM, partner dose 0.4 µM), the “cleaved PARP positive nuclei fraction” value was 260%.
`CS(=O)(=O)c1ccc(C(=O)Nc2ccc(Cl)c(-c3ccccn3)c2)c(Cl)c1` [vismodegib] + CC(=O)O[C@@]12CO[C@@H]1C[C@H](O)[C@@]1(C)C(=O)[C@H](O)C3=C(C)[C@@H](OC(=O)[C@H](O)[C@@H](NC(=O)OC(C)(C)C)c4ccccc4)C[C@@](O)([C@@H](OC(=O)c4ccccc4)[C@H]21)C3(C)C [Docetaxel] (first compound 1 µM, partner dose 0.0001 µM): the “cleaved PARP positive nuclei fraction” value stood at 295%.
For `CC(=O)O[C@@]12CO[C@@H]1C[C@H](O)[C@@]1(C)C(=O)[C@H](O)C3=C(C)[C@@H](OC(=O)[C@H](O)[C@@H](NC(=O)OC(C)(C)C)c4ccccc4)C[C@@](O)([C@@H](OC(=O)c4ccccc4)[C@H]21)C3(C)C` [Docetaxel] + COc1cc(Nc2ncc(F)c(Nc3ccc4c(n3)NC(=O)C(C)(C)O4)n2)cc(OC)c1OC [Tamatinib] (first compound 0.0001 µM, partner dose 0.4 µM) the value was 155%; for `CS(=O)(=O)c1ccc(C(=O)Nc2ccc(Cl)c(-c3ccccn3)c2)c(Cl)c1` [vismodegib] + CC1(C)NC(=O)N(c2ccc([N+](=O)[O-])c(C(F)(F)F)c2)C1=O [nilutamide] (first compound 1 µM, partner dose 1 µM), 37.6%.
For `CCN(CC)CCNC(=O)c1c(C)[nH]c(/C=C2\C(=O)Nc3ccc(F)cc32)c1C` [sunitinib] + COCC[n+]1c2c(n(Cc3cnccn3)c1C)C(=O)c1ccccc1C2=O [YM155] (first compound 0.4 µM, partner dose 0.0004 µM) the value was 212%.
For `NC1(c2ccc(-c3nc4ccn5c(=O)[nH]nc5c4cc3-c3ccccc3)cc2)CCC1` + Nc1ncn([C@H]2C[C@H](O)[C@@H](CO)O2)c(=O)n1 [decitabine] (first compound 0.4 µM, partner dose 0.1 µM) the value was 108%.
